Results are given in words; binding and its absence hold for the method and conditions named. In cells and extracts the contact can be indirect. Here binding means that the protein was enriched with, or labelled near, the bait; the list need not be complete. Tags and fused reporters may be left off the sequences shown.
T1: C-terminally S-tagged derivative of NctA (NctA-S-tag) (Aspergillus fumigatus) (UniProt B0XTT5)
T1 sequence: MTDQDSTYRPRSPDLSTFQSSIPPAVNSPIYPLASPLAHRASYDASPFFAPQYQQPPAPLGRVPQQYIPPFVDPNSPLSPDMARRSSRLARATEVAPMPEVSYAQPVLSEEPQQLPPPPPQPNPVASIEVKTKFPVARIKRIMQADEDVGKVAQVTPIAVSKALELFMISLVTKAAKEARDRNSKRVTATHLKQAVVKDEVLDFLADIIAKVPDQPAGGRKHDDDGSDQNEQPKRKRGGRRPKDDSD

T2: C-terminally S-tagged version of NctB (NctB-S-tag) (Aspergillus fumigatus) (UniProt B0Y0F3)
T2 sequence: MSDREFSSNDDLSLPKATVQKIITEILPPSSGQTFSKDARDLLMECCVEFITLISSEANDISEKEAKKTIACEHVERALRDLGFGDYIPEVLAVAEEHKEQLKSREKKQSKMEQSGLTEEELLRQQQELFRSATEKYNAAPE


Assays:
[1] = molecular target: T1, C-terminally S-tagged derivative of NctA (NctA-S-tag) (Aspergillus fumigatus); experiment: affinity purification with mass spectrometry; S-tagged bait captured from crude A. fumigatus protein extract on S-protein agarose beads, 4 °C for 2 h, washed in HK buffer with 100 mM NaCl, eluted in Laemmli sample buffer, LC/MS identification (>2 matched peptides)
[2] = molecular target: T2, C-terminally S-tagged version of NctB (NctB-S-tag) (Aspergillus fumigatus); experiment: as above

Molecule | binding [1] | binding [2]
TBP-associated transcriptional regulator Mot1 | binds | binds
transcriptional co-repressor Cyc8 | binds | –
NctB (protein, UniProt B0Y0F3 1-142) MSDREFSSNDDLSLPKATVQKIITEILPPSSGQTFSKDARDLLMECCVEFITLISSEANDISEKEAKKTIACEHVERALRDLGFGDYIPEVLAVAEEHKEQLKSREKKQSKMEQSGLTEEELLRQQQELFRSATEKYNAAPE | binds | –
NctA (protein, UniProt B0XTT5 1-247) MTDQDSTYRPRSPDLSTFQSSIPPAVNSPIYPLASPLAHRASYDASPFFAPQYQQPPAPLGRVPQQYIPPFVDPNSPLSPDMARRSSRLARATEVAPMPEVSYAQPVLSEEPQQLPPPPPQPNPVASIEVKTKFPVARIKRIMQADEDVGKVAQVTPIAVSKALELFMISLVTKAAKEARDRNSKRVTATHLKQAVVKDEVLDFLADIIAKVPDQPAGGRKHDDDGSDQNEQPKRKRGGRRPKDDSD | – | binds
